Paper PMC10163288
The list shows a part of the results.

B1: il2ra_site1_2b5i_sap_11_mot_HHH_b2_04463_af2_000000056_0001_43_55_H_._HHH_b1_05331_af2_0001_0000300038_0000001_0_0001 (protein)
chain: SSSSDRELTRAAVRIVWRLMWELNLSREEAQLLNRLAAELVDRGVSPEELEEILREYAEEISSSS
B2: il2ra_site2_2erj_sap_17_mot_HHH_b2_02941_af2_000000183_0001_1_17_H_._a163ca1559da7b4b86abf89ce1a5d894_0001_0001_0000600028_0000001_0_0001_af2pred_0001_1_af2pred … (protein)
chain: SSSSDEEEIRRRVKELLEEAEEIPNLREVLRLLQEALKLAAKLDDPELLKLIKEVFEELSSSSSS
B3: il2ra_site1_3nfp_sap_16_mot_HHH_b1_01231_af2_000000170_0001_1_16_H_._b696cedac0eb12313cfa5cdca89df678_0001_0001_0000700027_0000001_0_0001_af2pred_0001_af2pred_1 … (protein)
chain: GAEEALELLKKVAEELNDPALKFAAKVLEKELRENPEAAERALRLFVERSGNPVLEEVLELLESD
B4: il2ra_site1_1z92_sap_18_mot_HHH_b2_01254_af2_000000148_0001_42_56_H_._HHH_b2_01787_0001_0000100001_0000001_0_0001 (protein)
chain: SVDEELEELLKRGNAEEAERFLRELVEKEGDPELKAALRDLERSQEFGIPPRSVIQAVVEALKRF
B5: il2ra_site2_2erj_normal_mot_HHH_b1_02757_000000121_0001_41_57_H_._HHH_b1_00835_0001_0000300010_0000001_0_af2pred_0001_1_af2pred_swapped (protein)
chain: SSSSSDEEEFRERVRELLEEAEHIPDPREALKVLQEASRLALKADDPELIEEVLEAARRSSSSSS
B6: il2ra_site1_3nfp_normal_mot_HHH_b2_02066_af2_000000034_0001_1_16_H_._56b2e862c5d7020fcb9d25388f5aedda_0001_0001_0000300045_0000001_0_af2pred_0001_af2pred (protein)
chain: STAERFLERAKEDGSLKAVSSVAKAVAKLLNDPELEERIRELEEKAKENPEVQEELIRLAEELLK
B7: il2ra_site1_2b5i_normal_mot_HHH_b2_04461_000000219_0001_1_19_H_._HHH_b1_00060_0001_0000100002_0000001_0_af2pred_dldesign_0_af2pred (protein)
chain: SSSSSPEKEKALKLFLEANELRKAGKEEEAIKLLEEALKLAEKGKAPLLAKIIRSALEDLKSSSS
B8: il2ra_site2_3nfp_normal_mot_HHH_b1_08081_af2_000000020_0001_38_50_H_._HHH_b1_01332_0001_0001100031_0000001_1 (protein)
chain: SSSSDDVERYLRAALLLARRAIEEGDREFAERILKLIRKLAEDARDEEALREAERLLEEVGSSSS
B9: il2ra_site2_2erj_sap_23_mot_HHH_b1_05749_af2_000000058_0001_23_39_H_._7397bc064fdf6bae2cd3d62d454bf56a_0001_1_0001_0000200023_0000001_0_0001_af2pred_0001_1_af2p … (protein)
chain: SSSSSSELREILRRVLELLSRLLEVSPEEAEKLLEEAKELAEESNSPLLKKVVERARKKLSSSSS
B10: il2ra_site2_2erj_sap_18_mot_HHH_b1_02968_000000142_0001_22_39_H_._HHH_b2_06416_0001_0000200008_0000001_0_0001_af2pred_0001_1_af2pred_swapped (protein)
chain: SSSSSELEEILRELVEELVEEFNLSEEQREHLELAARSALEAGADEELAEAFLRLIAEKLHSSSS
B11: il2ra_site1_2b5i_sap_12_mot_HHH_b2_04463_af2_000000056_0001_43_55_H_._HHH_b2_02114_af2_0001_0000100003_0000001_1_0001 (protein)
chain: SSSSNEAAREARELMEKLDEAFRRGDEELLEELLEEIEEFLKEQDDKFLRLAMEQVREELSSSSS
B12: il2ra_site1_1z92_sap_12_mot_HHH_b1_00561_af2_000000294_0001_1_19_H_._HHH_b2_00458_af2_0001_0000100010_0000001_0_0001_af2pred_0001_af2pred_1_swapped (protein)
chain: SSSSDKERSLRYAVELAVKLAGLSEEQQKELEELVEELIKRGVDFLEALRIIDERAAELASSSSS
B13: il2ra_site1_3nfp_normal_mot_1cd86ef9f1587ae5d14d35bbbd8e7f1d_0001_1_000000087_0001_34_49_H_._HHH_b1_06064_0001_0000400037_0000001_0_af2pred_0001_af2pred_1_swapp … (protein)
chain: SSSSSDEEASELNERILRLLFEGNDEEAQELIERLEELAEELNDPKLRKFVELLQRELELLSSSS
B14: il2ra_site2_2erj_sap_12_mot_4428453eb85d3cbdb794fa6b82d21c19_0001_000000044_0001_14_30_H_._HHH_b2_01893_0001_0000400017_0000001_0_0001 (protein)
chain: SSSSSDTKEQVEELYEEIEKITDLHELFRLAVEITARAQESNDEEAIRLVKELLELLHEHSSSSS
B15: il2ra_site1_2b5i_sap_17_mot_HHH_b1_03355_af2_000000029_0001_41_57_H_._HHH_b1_08417_af2_0001_0000300024_0000001_1_0001 (protein)
chain: SSSSDEEIERIQELFAQASRLWRKGNPEEAREVLEEALELAEEAGDPRAARELKHMLERASSSSS
B16: il2ra_site1_3nfp_normal_mot_HHH_b2_01946_000000116_0001_24_41_H_._HHH_b2_03085_af2_0001_0000200032_0000001_0 (protein)
chain: SSSSSEIEEEVKELLEEIERLLREGDWREAAKIAEKVIRLAARGNDEEADRLIHEFLKRLSSSSS
B17: il2ra_site2_2erj_normal_mot_HHH_b2_01204_af2_000000056_0001_19_34_H_._HHH_b1_07526_0001_0000500022_0000001_0 (protein)
chain: SSSSLEEAYKTLVELLRLLSEGDDEKFEELVEEFERKLEEEGDEVTLESFREFAEWLREAQSSSS
B18: il2ra_site1_2b5i_normal_mot_HHH_b1_02271_000000068_0001_1_16_H_._HHH_b1_08003_0001_0000900024_0000001_0_af2pred_dldesign_0_af2pred (protein)
chain: SSSSSDKKAEVERLIEEAERLYKAGKRREALEKLNEAKKLADAADDEELEDKIEELAKKISSSSS
B19: il2ra_site1_3nfp_sap_14_mot_HHH_b2_03042_af2_000000210_0001_23_39_H_._5473c73378f943375813cc6914cdbd9c_0001_0001_0000500020_0000001_0_0001_af2pred_0001_af2pred (protein)
chain: SSSSSDAQRRVLELLEQLRELLKEGDEEEAEKLLEELKRLAEEINDKAVRILIERFERKLKSSSS
B20: il2ra_site2_2erj_normal_mot_39ed66e5fba071e4f274ea7f2cf018e6_0001_000000286_0001_17_31_H_._HHH_b2_07194_0002_0000700018_0000001_0 (protein)
chain: SSSSSDEEEREQVRRLLEEAERVSWEEAWELLREAFRLAARLRDEELLREIAEVFERIARSSSSS
B21: il2ra_site1_1z92_normal_mot_HHH_b1_01565_af2_000000147_0001_1_17_H_._HHH_b2_06643_af2_0001_0000300025_0000001_0_af2pred_0001_af2pred (protein)
chain: SSSSSDLERILRKAARVIARLAGLDEEEREELEEIARELAERGVDREEAIRILHEVALKLGSSSS
B22: il2ra_site1_2b5i_normal_mot_22370d59370c406a0c205a431f537cfa_0001_af2_000000141_0001_1_31_H_._HHH_b1_01338_af2_0001_0000100004_0000001_0 (protein)
chain: SSSSDRELTHFAVRVIWRLRVEFGLSAEQARELDRIAAHLVNEGVSEEEIEEILREVAEELSSSS
B23: il2ra_site2_2erj_sap_21_mot_HHH_b1_03752_000000035_0001_21_37_H_._HHH_b1_08163_0001_0000100002_0000001_0_0001 (protein)
chain: SSSSNEELHELYELAVELMRLAAEGDEEEFEHLAEELKRLAEELQSDVVREIVENLEQLISSSSS
B24: il2ra_site2_2erj_sap_18_mot_HHH_b1_00163_af2_000000268_0001_19_36_H_._HHH_b2_03331_0001_0000700032_0000001_0_0001 (protein)
chain: SSSSDEEEEAKELAEELERALEEGDEELFRRLAWELLRFAWEYNDELAQKLLTELFRKNGSSSSS

The binders below were run against il2ra, P01589 (assay: yeast display titration).

Apparent Kd, inactive:
B1 no binding seen
B2 no binding seen
B3 no binding seen
B4 no binding seen
B5 no binding seen
B6 no binding seen
B7 no binding seen
B8 no binding seen
B9 no binding seen
B10 no binding seen
B11 no binding seen
B12 no binding seen
B13 no binding seen
B14 no binding seen
B15 no binding seen
B16 no binding seen
B17 no binding seen
B18 no binding seen
B19 no binding seen
B20 no binding seen
B21 no binding seen
B22 no binding seen
B23 no binding seen
B24 no binding seen

2 neighbouring entries already listed, for reference:
Apparent Kd, inactive:
B22 no binding seen
B23 no binding seen
